Experimental data from the supplement of paper PMC11732987, “Enantioselective OTUD7B fragment discovery through chemoproteomics screening and high-throughput optimisation” (Communications Chemistry, 2025).
This is one part of the list. The data scatter; read single values as rough.

Amino acid sequences for entries named in this document (tags omitted). A change or cut given only in a name is not applied to a line headed by its entry. Residues count along the entry.
UniProt P49137, whole entry, looked up: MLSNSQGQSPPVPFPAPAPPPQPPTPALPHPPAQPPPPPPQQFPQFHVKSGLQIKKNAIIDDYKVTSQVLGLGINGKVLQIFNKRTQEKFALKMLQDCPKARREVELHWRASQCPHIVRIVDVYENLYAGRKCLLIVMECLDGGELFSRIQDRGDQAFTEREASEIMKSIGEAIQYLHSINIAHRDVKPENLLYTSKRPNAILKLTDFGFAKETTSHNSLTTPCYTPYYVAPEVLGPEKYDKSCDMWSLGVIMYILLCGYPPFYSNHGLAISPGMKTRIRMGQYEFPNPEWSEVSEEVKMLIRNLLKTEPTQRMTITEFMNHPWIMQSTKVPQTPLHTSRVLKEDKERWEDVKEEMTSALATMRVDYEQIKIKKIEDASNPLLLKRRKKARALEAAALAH
UniProt P45985: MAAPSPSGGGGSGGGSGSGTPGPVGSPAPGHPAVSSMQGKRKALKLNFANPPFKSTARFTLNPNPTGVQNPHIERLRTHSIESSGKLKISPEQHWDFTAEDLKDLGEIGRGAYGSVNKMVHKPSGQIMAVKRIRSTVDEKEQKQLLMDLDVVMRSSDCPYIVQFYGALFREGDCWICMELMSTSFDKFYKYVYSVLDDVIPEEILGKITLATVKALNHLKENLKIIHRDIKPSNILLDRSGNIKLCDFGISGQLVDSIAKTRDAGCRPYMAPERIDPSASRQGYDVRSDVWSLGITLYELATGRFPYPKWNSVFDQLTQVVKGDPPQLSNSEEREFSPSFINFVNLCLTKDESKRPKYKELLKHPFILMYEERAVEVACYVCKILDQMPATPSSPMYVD
UniProt Q9NQ48: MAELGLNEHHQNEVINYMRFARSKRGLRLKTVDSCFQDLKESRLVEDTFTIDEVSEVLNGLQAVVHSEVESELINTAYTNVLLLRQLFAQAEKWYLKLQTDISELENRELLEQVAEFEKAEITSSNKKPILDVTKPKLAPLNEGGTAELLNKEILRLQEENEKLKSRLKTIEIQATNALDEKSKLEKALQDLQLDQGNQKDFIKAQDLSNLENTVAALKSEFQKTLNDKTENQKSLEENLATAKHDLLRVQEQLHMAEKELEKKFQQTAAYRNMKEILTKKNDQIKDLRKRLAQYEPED
UniProt P48449: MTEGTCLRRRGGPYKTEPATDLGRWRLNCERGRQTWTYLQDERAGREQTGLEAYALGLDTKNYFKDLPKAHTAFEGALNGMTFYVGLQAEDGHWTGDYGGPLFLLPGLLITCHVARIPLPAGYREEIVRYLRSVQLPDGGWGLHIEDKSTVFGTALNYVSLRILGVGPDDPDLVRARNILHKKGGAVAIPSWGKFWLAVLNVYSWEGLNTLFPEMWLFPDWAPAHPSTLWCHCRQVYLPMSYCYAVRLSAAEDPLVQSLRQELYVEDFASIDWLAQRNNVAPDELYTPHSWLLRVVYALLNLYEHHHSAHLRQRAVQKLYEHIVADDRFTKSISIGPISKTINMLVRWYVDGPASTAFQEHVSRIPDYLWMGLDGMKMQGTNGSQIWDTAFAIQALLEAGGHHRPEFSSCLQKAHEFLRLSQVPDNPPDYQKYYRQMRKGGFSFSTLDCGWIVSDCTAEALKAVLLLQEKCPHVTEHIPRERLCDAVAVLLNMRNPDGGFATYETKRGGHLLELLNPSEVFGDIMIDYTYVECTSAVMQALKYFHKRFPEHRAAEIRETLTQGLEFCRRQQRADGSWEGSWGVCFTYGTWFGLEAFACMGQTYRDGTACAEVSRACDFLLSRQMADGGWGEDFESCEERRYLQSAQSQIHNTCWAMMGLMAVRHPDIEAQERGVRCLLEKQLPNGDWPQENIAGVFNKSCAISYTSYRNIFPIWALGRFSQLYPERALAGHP
UniProt Q8N5G2, 298-320: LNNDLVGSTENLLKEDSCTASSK
UniProt Q9Y546: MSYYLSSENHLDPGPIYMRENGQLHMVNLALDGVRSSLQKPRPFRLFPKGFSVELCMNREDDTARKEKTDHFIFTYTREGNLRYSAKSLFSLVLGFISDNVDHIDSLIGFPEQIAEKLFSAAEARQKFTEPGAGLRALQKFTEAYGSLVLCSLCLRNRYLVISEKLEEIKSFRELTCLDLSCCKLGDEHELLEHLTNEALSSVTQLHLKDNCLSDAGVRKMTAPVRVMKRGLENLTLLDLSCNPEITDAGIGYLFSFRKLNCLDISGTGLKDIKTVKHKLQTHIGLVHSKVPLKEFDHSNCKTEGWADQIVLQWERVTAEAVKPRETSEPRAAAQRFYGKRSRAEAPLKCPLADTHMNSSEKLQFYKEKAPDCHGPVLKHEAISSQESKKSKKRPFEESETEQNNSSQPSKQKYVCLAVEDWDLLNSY
UniProt Q13164: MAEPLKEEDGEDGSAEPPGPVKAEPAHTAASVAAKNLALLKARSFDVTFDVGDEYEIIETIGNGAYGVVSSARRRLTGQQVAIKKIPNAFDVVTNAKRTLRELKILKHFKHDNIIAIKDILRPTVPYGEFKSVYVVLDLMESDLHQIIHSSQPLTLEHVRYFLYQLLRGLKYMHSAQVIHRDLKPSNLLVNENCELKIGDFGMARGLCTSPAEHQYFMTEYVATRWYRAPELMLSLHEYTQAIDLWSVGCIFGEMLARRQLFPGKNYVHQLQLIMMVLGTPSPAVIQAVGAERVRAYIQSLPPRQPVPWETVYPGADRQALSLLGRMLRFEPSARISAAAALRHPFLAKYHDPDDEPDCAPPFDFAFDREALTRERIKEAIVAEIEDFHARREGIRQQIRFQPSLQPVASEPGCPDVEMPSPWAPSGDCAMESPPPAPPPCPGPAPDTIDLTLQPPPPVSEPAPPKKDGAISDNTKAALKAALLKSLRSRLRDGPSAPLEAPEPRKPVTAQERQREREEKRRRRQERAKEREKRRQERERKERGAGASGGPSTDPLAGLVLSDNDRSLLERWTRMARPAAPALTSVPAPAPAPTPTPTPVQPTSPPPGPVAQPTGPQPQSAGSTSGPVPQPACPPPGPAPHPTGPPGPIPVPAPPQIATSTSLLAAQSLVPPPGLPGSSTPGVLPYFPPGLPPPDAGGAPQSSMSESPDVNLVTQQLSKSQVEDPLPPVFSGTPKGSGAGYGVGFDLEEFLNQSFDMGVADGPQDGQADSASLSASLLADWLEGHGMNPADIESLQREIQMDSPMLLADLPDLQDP
UniProt Q15345: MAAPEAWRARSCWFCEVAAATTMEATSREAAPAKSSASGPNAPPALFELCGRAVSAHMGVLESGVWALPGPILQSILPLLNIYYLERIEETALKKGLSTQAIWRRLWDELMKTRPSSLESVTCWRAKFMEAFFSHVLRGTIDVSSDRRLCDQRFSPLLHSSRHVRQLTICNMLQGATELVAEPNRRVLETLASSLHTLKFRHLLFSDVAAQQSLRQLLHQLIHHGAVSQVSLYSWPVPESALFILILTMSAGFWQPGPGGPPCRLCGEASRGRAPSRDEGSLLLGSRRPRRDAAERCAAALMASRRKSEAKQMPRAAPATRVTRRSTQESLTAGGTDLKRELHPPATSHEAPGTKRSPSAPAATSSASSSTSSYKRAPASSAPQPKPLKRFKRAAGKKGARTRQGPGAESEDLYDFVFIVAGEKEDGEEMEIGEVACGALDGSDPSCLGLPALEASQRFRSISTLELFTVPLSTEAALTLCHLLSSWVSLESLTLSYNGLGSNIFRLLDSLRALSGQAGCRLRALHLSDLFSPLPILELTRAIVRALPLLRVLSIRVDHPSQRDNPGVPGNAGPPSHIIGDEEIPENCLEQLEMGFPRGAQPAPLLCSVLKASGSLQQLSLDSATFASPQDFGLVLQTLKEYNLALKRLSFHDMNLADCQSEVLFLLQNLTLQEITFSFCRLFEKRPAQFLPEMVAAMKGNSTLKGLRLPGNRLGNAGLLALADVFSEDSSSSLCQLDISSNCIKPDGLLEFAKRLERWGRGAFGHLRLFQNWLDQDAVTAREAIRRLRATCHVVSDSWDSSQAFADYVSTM
UniProt P49736: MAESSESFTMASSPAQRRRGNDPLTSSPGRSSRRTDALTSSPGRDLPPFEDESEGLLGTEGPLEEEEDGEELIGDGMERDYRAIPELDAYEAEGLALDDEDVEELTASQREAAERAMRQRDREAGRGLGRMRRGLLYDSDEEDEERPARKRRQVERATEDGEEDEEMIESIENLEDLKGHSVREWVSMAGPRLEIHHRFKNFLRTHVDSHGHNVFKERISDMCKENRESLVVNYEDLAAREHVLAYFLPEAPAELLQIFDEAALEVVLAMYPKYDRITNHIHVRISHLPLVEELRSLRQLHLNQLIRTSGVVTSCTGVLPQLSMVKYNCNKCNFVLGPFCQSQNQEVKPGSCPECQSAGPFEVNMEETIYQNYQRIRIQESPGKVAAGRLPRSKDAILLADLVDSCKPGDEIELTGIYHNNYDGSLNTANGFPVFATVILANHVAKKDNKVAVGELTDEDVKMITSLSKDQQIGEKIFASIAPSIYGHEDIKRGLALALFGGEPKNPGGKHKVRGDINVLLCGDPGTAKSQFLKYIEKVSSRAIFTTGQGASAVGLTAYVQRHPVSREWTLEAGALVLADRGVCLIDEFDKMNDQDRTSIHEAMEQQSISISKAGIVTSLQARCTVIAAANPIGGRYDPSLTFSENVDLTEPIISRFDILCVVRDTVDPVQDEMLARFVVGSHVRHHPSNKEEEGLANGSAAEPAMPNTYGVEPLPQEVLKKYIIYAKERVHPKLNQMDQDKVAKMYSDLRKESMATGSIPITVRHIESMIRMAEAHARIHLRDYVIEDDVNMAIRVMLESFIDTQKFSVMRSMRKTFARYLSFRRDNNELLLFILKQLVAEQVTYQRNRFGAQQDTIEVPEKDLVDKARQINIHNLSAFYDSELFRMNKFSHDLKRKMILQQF
UniProt Q9Y2U5: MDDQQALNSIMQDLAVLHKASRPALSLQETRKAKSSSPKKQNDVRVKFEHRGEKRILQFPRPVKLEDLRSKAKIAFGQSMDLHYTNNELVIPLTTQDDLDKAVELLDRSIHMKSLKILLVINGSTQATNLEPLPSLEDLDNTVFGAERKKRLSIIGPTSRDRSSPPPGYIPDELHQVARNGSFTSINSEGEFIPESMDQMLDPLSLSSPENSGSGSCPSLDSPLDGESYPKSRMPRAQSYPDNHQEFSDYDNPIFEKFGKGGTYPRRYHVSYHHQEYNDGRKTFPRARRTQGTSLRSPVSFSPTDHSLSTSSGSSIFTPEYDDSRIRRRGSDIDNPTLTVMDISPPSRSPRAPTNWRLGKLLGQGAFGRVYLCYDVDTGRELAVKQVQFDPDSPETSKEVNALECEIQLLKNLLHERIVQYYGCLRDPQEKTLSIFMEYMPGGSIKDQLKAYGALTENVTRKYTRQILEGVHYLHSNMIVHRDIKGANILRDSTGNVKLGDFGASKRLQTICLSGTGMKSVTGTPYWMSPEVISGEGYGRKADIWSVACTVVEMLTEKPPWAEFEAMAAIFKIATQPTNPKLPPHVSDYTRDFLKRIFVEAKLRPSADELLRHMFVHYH
UniProt P33991: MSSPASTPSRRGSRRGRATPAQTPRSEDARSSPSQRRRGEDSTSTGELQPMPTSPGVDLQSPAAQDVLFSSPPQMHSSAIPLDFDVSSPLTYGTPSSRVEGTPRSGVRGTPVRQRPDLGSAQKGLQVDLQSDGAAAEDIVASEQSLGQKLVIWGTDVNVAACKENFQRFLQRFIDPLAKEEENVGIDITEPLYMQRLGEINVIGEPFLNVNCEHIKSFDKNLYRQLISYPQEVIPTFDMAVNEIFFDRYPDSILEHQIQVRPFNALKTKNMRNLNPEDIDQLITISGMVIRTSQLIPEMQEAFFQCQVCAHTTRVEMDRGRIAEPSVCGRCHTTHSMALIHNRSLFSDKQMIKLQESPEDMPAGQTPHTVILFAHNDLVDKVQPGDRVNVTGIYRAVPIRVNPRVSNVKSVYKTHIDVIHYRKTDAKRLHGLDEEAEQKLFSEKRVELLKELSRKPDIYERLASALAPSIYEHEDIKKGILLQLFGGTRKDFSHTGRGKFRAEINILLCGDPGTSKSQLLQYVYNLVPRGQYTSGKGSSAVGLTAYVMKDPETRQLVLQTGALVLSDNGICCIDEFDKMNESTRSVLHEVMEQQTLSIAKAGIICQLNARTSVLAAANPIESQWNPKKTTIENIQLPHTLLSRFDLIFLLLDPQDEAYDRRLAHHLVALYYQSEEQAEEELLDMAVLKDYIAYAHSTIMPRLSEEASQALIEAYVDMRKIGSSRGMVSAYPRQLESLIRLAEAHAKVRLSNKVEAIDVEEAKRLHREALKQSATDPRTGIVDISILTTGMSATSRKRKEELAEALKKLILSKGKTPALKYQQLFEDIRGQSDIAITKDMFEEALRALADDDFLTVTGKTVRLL

Tests used:
[1] = compound: ClCC(=O)N[C@@H]1CCCc2ccccc12; assay: log2 mean competition ratio of IA-DTB cysteine labelling (DMSO/compound) (log2 ratio); higher = stronger cysteine engagement by compound; details: treatment time: 4 h, cell line lysate: HEK293T
Procedure: (§1)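 IA-DTB competitive cysteine chemoproteomics in HEK293T RIPA lysate. Lysates were treated with compound 29 or 30 at 50 or 200 µM for 4 h, then IA-DTB (500 µM, 1 h), trypsin-digested, NeutrAvidin-enriched and analysed by diaPASEF. Competition ratio = intensity DMSO / intensity compound (n=4 treated, n=64 DMSO); binding: mean log2 CR ≥ 1 and p ≤ 0.05 plus QC filters. Target is the cysteine site.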

[2] = compound: ClCC(=O)N[C@H]1CCCc2ccccc12; assay: as above; details: treatment time: 4 h, cell line lysate: HEK293T
Procedure: as §1

Row | Target | log2 mean competition ratio ([1]; 50 µM) | log2 mean competition ratio ([1]; 200 µM) | log2 mean competition ratio ([2]; 50 µM) | log2 mean competition ratio ([2]; 200 µM)
1 | MAP3K4 C596 (UniProt Q9Y6R4) | -0.0763 | -0.0458 | -0.201 | -0.0259
2 | MAPKAPK2 C114 (UniProt P49137) | 0.211 | -0.282 | 0.0882 | -0.314
3 | MAP2K4 C266 (UniProt P45985) | 0.377 | 0.391 | 0.155 | 0.31
4 | MAP3K15 C1227 (UniProt Q6ZN16) | 0.372 | -0.219 | 0.365 | -0.183
5 | LSM14A C375 | -0.0257 | 0.27 | 0.218 | 0.527
6 | LUC7L3 C58 (UniProt O95232) | -0.0704 | -0.0334 | 0.191 | 0.0569
7 | LZTFL1 C35 (UniProt Q9NQ48) | -0.133 | -0.058 | -0.473 | -0.09
8 | MARK4 C299 (UniProt Q96L34) | 0.0536 | -0.151 | -0.117 | -0.0102
9 | LRRC47 C249 (UniProt Q8N1G4) | 0.25 | -0.136 | 0.231 | -0.0798
10 | LSS C6 (UniProt P48449) | -0.147 | -0.0961 | 0.00614 | 0.225
11 | MACO1 C315 (UniProt Q8N5G2) | -0.424 | 0.399 | -0.252 | -0.0577
12 | LRRC42 C212 (UniProt Q9Y546) | 0.0413 | -0.106 | 0.00807 | 0.0812
13 | MAPK7 C194 (UniProt Q13164) | -0.292 | 0.35 | -0.395 | 0.213
14 | MCM9 C529 (UniProt Q9NXL9) | 0.331 | 0.416 | 0.281 | 0.115
15 | LRRC41 C266 (UniProt Q15345) | -0.0478 | 0.117 | -0.0647 | 0.131
16 | MAP2K5 C109 (UniProt Q13163) | 0.278 | -0.251 | -0.0974 | 0.175
17 | MCM2 C522 (UniProt P49736) | -0.26 | -0.157 | -0.284 | -0.109
18 | MBNL1 C43 | 0.00327 | 0.0547 | 0.0646 | 0.122
19 | MAP3K2 C373 (UniProt Q9Y2U5) | -0.121 | -0.0894 | -0.283 | -0.0988
20 | MASTL C555 (UniProt Q96GX5) | -0.526 | -0.13 | 0.0505 | 0.199
21 | MCM8 C235 | -0.0587 | -0.269 | 0.372 | -0.0339
22 | MCM4 C509 (UniProt P33991) | -0.133 | -0.0861 | -0.327 | -0.072

A different layout for some results above:

| Row | Target | log2 mean competition ratio ([1]; 50 µM) | log2 mean competition ratio ([1]; 200 µM) | log2 mean competition ratio ([2]; 50 µM) | log2 mean competition ratio ([2]; 200 µM) |
| --- | --- | --- | --- | --- | --- |
| 4 | MAP3K15 C1227 (UniProt Q6ZN16) | 0.372 | -0.219 | 0.365 | -0.183 |
| 9 | LRRC47 C249 (UniProt Q8N1G4) | 0.25 | -0.136 | 0.231 | -0.0798 |
